{
  "sequences": {"note": "The chains behind the UniProt entries cited, without tags or fusion partners. Where a name states a change or a piece, a line headed by the entry shows the natural chain unless it says otherwise. Residues count along the entry.", "UniProt O95900": "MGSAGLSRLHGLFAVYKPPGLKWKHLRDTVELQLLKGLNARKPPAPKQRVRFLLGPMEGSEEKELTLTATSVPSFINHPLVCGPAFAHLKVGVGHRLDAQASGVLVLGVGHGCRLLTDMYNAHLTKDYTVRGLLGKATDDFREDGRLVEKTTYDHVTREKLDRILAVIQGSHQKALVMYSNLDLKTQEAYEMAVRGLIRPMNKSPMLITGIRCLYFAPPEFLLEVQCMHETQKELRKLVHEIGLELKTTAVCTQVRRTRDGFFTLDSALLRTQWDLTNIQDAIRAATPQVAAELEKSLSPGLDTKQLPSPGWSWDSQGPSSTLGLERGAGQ", "UniProt Q3KQV9, 286-318": "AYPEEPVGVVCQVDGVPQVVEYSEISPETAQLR", "UniProt Q5VYS8": "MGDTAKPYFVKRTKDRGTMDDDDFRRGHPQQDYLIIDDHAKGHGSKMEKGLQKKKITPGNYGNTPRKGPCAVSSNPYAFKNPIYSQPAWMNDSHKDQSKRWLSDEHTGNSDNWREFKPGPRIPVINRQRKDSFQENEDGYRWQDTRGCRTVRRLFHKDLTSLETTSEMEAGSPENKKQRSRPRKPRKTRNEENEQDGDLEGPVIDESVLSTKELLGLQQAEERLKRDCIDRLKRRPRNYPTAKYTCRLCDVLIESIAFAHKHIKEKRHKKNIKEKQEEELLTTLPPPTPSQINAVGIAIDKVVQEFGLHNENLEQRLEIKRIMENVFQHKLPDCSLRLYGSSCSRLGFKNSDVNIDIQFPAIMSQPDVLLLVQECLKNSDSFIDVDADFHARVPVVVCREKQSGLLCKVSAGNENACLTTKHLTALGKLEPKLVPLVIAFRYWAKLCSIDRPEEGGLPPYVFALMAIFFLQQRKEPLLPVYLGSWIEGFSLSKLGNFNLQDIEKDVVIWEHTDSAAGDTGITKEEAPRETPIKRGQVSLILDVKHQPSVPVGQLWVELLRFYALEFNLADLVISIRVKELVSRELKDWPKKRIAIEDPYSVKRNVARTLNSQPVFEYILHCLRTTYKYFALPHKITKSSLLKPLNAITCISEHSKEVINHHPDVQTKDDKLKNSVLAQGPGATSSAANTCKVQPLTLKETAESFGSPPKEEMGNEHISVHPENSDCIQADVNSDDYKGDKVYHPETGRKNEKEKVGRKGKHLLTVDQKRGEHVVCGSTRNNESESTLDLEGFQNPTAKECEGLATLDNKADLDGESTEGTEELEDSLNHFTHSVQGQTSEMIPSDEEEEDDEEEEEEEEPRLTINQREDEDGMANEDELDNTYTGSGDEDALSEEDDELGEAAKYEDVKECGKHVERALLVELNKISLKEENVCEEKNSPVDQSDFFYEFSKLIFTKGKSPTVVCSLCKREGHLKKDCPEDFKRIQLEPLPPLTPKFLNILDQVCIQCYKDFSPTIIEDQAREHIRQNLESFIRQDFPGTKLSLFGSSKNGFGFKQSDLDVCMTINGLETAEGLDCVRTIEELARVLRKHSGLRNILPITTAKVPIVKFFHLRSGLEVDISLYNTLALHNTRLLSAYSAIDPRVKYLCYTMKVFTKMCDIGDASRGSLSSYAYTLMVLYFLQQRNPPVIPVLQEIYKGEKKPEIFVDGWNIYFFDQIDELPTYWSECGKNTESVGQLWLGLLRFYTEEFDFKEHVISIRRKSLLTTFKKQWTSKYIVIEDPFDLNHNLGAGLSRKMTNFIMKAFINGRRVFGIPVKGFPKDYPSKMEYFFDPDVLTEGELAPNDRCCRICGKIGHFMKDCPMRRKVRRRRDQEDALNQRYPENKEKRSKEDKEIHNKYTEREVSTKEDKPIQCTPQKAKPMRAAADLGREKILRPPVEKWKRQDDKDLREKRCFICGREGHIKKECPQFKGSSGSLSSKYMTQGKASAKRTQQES", "UniProt Q8IWV7, 992-1016": "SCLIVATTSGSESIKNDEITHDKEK", "UniProt Q5TAX3": "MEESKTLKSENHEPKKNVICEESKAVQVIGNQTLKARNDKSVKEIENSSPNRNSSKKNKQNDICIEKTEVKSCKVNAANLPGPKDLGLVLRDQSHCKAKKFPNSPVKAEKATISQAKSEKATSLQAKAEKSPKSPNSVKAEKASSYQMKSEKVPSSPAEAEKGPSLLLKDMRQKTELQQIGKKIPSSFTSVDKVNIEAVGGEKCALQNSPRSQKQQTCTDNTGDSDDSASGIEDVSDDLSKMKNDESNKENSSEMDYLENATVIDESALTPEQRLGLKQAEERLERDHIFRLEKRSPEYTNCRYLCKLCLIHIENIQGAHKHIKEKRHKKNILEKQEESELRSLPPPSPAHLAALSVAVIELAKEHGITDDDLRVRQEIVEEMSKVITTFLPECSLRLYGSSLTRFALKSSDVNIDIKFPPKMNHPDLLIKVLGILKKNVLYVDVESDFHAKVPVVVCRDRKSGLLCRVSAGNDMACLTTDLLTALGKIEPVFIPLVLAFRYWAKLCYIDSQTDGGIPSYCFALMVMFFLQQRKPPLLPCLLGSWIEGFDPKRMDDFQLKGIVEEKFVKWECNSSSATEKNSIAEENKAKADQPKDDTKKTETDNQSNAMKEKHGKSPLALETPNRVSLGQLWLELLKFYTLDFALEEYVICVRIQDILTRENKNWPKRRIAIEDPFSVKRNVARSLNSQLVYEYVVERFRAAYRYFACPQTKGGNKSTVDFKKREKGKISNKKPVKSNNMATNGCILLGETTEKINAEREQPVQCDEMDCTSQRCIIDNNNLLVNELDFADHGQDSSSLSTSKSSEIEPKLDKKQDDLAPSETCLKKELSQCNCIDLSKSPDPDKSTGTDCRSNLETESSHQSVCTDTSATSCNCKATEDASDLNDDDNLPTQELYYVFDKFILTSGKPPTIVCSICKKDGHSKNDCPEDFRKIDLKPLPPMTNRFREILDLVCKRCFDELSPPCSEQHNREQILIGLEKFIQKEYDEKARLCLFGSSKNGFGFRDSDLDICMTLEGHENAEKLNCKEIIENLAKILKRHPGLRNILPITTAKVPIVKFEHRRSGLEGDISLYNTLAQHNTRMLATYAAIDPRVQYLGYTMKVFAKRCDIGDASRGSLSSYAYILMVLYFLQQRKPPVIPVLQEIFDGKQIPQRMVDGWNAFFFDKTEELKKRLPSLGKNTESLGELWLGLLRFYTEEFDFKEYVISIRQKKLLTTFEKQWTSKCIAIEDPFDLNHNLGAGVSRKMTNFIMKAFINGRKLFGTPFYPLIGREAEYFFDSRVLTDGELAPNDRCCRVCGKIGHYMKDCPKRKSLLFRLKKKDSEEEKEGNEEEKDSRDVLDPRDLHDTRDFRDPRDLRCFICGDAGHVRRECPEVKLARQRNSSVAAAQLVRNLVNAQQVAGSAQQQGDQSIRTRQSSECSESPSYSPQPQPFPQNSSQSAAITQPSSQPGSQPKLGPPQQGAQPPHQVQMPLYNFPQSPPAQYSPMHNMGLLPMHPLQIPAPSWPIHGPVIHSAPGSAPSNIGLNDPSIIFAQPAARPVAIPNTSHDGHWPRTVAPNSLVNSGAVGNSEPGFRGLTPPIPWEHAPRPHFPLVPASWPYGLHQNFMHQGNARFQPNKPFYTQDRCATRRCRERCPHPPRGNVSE", "UniProt Q96N46": "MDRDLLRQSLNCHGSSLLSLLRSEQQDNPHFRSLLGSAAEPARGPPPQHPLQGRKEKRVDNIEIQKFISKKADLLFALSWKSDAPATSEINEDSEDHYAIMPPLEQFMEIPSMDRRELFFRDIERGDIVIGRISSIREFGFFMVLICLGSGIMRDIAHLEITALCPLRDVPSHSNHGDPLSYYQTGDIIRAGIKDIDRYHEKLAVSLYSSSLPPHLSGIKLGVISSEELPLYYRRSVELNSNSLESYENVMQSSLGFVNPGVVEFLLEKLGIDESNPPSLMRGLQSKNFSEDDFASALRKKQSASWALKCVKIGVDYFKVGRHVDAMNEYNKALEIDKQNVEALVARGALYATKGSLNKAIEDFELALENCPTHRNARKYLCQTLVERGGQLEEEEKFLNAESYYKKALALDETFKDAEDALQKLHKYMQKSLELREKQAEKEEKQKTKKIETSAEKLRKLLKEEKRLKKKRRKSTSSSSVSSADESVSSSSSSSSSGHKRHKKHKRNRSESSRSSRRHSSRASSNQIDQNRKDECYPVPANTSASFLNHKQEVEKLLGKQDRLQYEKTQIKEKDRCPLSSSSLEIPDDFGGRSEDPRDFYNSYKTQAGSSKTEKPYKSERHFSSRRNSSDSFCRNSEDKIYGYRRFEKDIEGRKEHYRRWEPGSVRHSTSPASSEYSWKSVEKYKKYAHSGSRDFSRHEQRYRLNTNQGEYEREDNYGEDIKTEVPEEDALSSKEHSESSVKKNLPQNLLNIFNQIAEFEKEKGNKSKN", "UniProt Q99614": "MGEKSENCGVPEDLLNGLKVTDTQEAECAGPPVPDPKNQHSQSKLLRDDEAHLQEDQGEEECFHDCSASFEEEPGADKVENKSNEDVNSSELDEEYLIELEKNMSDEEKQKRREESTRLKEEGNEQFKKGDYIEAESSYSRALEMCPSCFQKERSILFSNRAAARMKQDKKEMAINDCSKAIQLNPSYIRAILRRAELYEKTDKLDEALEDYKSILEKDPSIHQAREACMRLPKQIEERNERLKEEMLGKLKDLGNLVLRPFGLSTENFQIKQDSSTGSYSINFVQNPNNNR", "UniProt Q6ZU65, whole entry, looked up": "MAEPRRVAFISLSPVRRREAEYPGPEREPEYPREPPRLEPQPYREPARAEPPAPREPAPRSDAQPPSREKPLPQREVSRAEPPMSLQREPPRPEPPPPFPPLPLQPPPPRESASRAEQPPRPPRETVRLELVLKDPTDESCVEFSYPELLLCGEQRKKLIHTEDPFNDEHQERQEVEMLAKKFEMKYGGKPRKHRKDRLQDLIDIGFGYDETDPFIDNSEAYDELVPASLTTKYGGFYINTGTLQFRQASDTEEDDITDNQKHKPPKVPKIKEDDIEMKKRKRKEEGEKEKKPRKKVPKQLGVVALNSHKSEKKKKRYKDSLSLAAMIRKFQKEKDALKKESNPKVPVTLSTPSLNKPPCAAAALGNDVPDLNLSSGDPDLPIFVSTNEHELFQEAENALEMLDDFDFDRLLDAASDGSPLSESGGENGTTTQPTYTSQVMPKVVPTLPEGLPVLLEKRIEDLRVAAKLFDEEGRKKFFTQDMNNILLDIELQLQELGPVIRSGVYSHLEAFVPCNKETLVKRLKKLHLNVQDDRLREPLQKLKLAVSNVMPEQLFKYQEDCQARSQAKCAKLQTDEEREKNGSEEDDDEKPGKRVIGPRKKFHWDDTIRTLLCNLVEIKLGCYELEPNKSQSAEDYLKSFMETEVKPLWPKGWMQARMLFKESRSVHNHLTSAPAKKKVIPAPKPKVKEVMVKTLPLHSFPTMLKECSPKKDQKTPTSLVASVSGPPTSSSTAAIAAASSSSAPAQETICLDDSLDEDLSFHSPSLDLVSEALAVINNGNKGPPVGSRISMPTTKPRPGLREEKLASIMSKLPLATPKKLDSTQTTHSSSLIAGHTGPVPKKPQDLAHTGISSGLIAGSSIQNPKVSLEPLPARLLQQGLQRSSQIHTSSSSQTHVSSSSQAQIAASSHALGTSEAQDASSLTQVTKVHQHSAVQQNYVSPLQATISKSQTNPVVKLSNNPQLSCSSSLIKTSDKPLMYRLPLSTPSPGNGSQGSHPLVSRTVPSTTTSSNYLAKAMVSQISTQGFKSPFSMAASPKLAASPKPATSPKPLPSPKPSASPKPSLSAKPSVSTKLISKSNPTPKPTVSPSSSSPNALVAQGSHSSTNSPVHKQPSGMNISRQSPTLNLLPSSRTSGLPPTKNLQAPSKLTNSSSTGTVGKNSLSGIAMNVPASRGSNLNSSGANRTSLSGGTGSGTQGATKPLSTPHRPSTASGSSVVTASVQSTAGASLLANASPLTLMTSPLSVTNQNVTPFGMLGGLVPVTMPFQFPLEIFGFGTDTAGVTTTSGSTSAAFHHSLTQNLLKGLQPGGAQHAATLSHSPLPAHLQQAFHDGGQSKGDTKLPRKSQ", "UniProt Q9UNY4, 195-214": "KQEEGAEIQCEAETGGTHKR", "UniProt Q86VQ6, whole entry, looked up": "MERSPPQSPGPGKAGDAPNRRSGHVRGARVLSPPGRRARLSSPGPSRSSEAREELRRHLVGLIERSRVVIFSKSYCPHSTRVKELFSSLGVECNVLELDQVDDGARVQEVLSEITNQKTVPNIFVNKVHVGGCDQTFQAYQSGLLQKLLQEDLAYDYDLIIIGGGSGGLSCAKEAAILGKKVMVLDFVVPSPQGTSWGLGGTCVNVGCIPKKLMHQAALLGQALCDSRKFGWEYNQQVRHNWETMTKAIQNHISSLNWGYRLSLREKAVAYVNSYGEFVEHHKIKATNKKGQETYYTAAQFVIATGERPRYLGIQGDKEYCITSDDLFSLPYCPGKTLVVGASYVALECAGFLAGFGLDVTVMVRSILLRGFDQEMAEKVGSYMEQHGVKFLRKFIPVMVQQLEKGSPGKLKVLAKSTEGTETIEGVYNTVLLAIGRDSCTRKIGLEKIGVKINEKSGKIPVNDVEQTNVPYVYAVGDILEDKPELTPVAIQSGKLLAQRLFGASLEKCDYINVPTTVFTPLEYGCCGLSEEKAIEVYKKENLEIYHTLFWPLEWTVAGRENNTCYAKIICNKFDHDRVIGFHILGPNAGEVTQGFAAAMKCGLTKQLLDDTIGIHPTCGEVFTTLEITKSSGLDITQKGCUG"},
  "source": "the supplement of paper PMC11732987",
  "about": "“Enantioselective OTUD7B fragment discovery through chemoproteomics screening and high-throughput optimisation” (Communications Chemistry, 2025)",
  "key": {"[1]": {"compound": "ClCC(=O)N[C@H]1CCCc2ccccc12", "assay": "log2 mean competition ratio of IA-DTB cysteine labelling (DMSO/compound) (log2 ratio); higher = stronger cysteine engagement by compound", "conditions": "treatment time: 4 h, cell line lysate: HEK293T", "description": "(§1)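 IA-DTB competitive cysteine chemoproteomics in HEK293T RIPA lysate. Lysates were treated with compound 29 or 30 at 50 or 200 µM for 4 h, then IA-DTB (500 µM, 1 h), trypsin-digested, NeutrAvidin-enriched and analysed by diaPASEF. Competition ratio = intensity DMSO / intensity compound (n=4 treated, n=64 DMSO); binding: mean log2 CR ≥ 1 and p ≤ 0.05 plus QC filters. Target is the cysteine site.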"}, "[2]": {"compound": "ClCC(=O)N[C@@H]1CCCc2ccccc12", "assay": "log2 mean competition ratio of IA-DTB cysteine labelling (DMSO/compound) (log2 ratio); higher = stronger cysteine engagement by compound", "conditions": "treatment time: 4 h, cell line lysate: HEK293T", "description": "as §1"}},
  "note": "This is one part of the list. The data scatter; read single values as rough.",
  "data": [
    {"target": "TRUB2 C252 (UniProt O95900)", "values": [
      {"measurement": "log2 mean competition ratio", "setting": "[1]; 50 µM", "value": 0.11},
      {"measurement": "log2 mean competition ratio", "setting": "[1]; 200 µM", "value": -0.11}
    ]},
    {"target": "TUFM C290 (UniProt P49411)", "values": [
      {"measurement": "log2 mean competition ratio", "setting": "[1]; 50 µM", "value": -0.138},
      {"measurement": "log2 mean competition ratio", "setting": "[1]; 200 µM", "value": -0.0711}
    ]},
    {"target": "TUBG1;TUBG2 C26;(C26)", "values": [
      {"measurement": "log2 mean competition ratio", "setting": "[2]; 50 µM", "value": -0.308},
      {"measurement": "log2 mean competition ratio", "setting": "[2]; 200 µM", "value": -0.0124},
      {"measurement": "log2 mean competition ratio", "setting": "[1]; 50 µM", "value": -0.569},
      {"measurement": "log2 mean competition ratio", "setting": "[1]; 200 µM", "value": -0.392}
    ]},
    {"target": "UAP1L1 C296 (UniProt Q3KQV9)", "values": [
      {"measurement": "log2 mean competition ratio", "setting": "[1]; 50 µM", "value": 0.0434},
      {"measurement": "log2 mean competition ratio", "setting": "[1]; 200 µM", "value": -0.559}
    ]},
    {"target": "TUT7 C649 (UniProt Q5VYS8)", "values": [
      {"measurement": "log2 mean competition ratio", "setting": "[2]; 50 µM", "value": 0.521},
      {"measurement": "log2 mean competition ratio", "setting": "[2]; 200 µM", "value": 0.108},
      {"measurement": "log2 mean competition ratio", "setting": "[1]; 50 µM", "value": -0.342},
      {"measurement": "log2 mean competition ratio", "setting": "[1]; 200 µM", "value": -0.0121}
    ]},
    {"target": "UBR4 C3864 (UniProt Q5T4S7)", "values": [
      {"measurement": "log2 mean competition ratio", "setting": "[1]; 50 µM", "value": -0.152},
      {"measurement": "log2 mean competition ratio", "setting": "[1]; 200 µM", "value": -0.0897}
    ]},
    {"target": "TXNRD2 C54 (UniProt Q9NNW7)", "values": [
      {"measurement": "log2 mean competition ratio", "setting": "[2]; 50 µM", "value": -0.369},
      {"measurement": "log2 mean competition ratio", "setting": "[2]; 200 µM", "value": -0.101},
      {"measurement": "log2 mean competition ratio", "setting": "[1]; 50 µM", "value": -0.161},
      {"measurement": "log2 mean competition ratio", "setting": "[1]; 200 µM", "value": -0.178}
    ]},
    {"target": "TTC27 C299 (UniProt Q6P3X3)", "values": [
      {"measurement": "log2 mean competition ratio", "setting": "[1]; 50 µM", "value": -0.586},
      {"measurement": "log2 mean competition ratio", "setting": "[1]; 200 µM", "value": -0.21}
    ]},
    {"target": "UBR1 C993 (UniProt Q8IWV7)", "values": [
      {"measurement": "log2 mean competition ratio", "setting": "[1]; 50 µM", "value": -0.168},
      {"measurement": "log2 mean competition ratio", "setting": "[1]; 200 µM", "value": -0.363}
    ]},
    {"target": "TRMT10C C78 (UniProt Q7L0Y3)", "values": [
      {"measurement": "log2 mean competition ratio", "setting": "[2]; 50 µM", "value": -0.342},
      {"measurement": "log2 mean competition ratio", "setting": "[2]; 200 µM", "value": -0.0685},
      {"measurement": "log2 mean competition ratio", "setting": "[1]; 50 µM", "value": 0.108},
      {"measurement": "log2 mean competition ratio", "setting": "[1]; 200 µM", "value": -0.281}
    ]},
    {"target": "TUT4 C302 (UniProt Q5TAX3)", "values": [
      {"measurement": "log2 mean competition ratio", "setting": "[1]; 50 µM", "value": -0.166},
      {"measurement": "log2 mean competition ratio", "setting": "[1]; 200 µM", "value": 0.182}
    ]},
    {"target": "UBE2E1 C67 (UniProt P51965)", "values": [
      {"measurement": "log2 mean competition ratio", "setting": "[1]; 50 µM", "value": -0.0243},
      {"measurement": "log2 mean competition ratio", "setting": "[1]; 200 µM", "value": -0.175}
    ]},
    {"target": "TTC14 C634 (UniProt Q96N46)", "values": [
      {"measurement": "log2 mean competition ratio", "setting": "[2]; 50 µM", "value": -0.261},
      {"measurement": "log2 mean competition ratio", "setting": "[2]; 200 µM", "value": 0.276},
      {"measurement": "log2 mean competition ratio", "setting": "[1]; 50 µM", "value": -0.25},
      {"measurement": "log2 mean competition ratio", "setting": "[1]; 200 µM", "value": 0.204}
    ]},
    {"target": "UBAP2 C10", "values": [
      {"measurement": "log2 mean competition ratio", "setting": "[1]; 50 µM", "value": -0.367},
      {"measurement": "log2 mean competition ratio", "setting": "[1]; 200 µM", "value": 0.236}
    ]},
    {"target": "UBE2O C375", "values": [
      {"measurement": "log2 mean competition ratio", "setting": "[1]; 50 µM", "value": -0.0243},
      {"measurement": "log2 mean competition ratio", "setting": "[1]; 200 µM", "value": 0.0313}
    ]},
    {"target": "TSEN54 C277 (UniProt Q7Z6J9)", "values": [
      {"measurement": "log2 mean competition ratio", "setting": "[1]; 50 µM", "value": -0.096},
      {"measurement": "log2 mean competition ratio", "setting": "[1]; 200 µM", "value": 0.275}
    ]},
    {"target": "TTC1 C8 (UniProt Q99614)", "values": [
      {"measurement": "log2 mean competition ratio", "setting": "[1]; 50 µM", "value": 0.127},
      {"measurement": "log2 mean competition ratio", "setting": "[1]; 200 µM", "value": -0.0601}
    ]},
    {"target": "TRRAP C3347 (UniProt Q9Y4A5)", "values": [
      {"measurement": "log2 mean competition ratio", "setting": "[1]; 50 µM", "value": 0.321},
      {"measurement": "log2 mean competition ratio", "setting": "[1]; 200 µM", "value": 0.153}
    ]},
    {"target": "TUT4 C928 (UniProt Q5TAX3)", "values": [
      {"measurement": "log2 mean competition ratio", "setting": "[2]; 50 µM", "value": -0.0991},
      {"measurement": "log2 mean competition ratio", "setting": "[2]; 200 µM", "value": 0.0404},
      {"measurement": "log2 mean competition ratio", "setting": "[1]; 50 µM", "value": -0.0835},
      {"measurement": "log2 mean competition ratio", "setting": "[1]; 200 µM", "value": -0.11}
    ]},
    {"target": "UBE2N C87 (UniProt P61088)", "values": [
      {"measurement": "log2 mean competition ratio", "setting": "[2]; 50 µM", "value": 0.213},
      {"measurement": "log2 mean competition ratio", "setting": "[2]; 200 µM", "value": -0.191},
      {"measurement": "log2 mean competition ratio", "setting": "[1]; 50 µM", "value": -0.118},
      {"measurement": "log2 mean competition ratio", "setting": "[1]; 200 µM", "value": -0.0852}
    ]},
    {"target": "UBR4 C4946 (UniProt Q5T4S7)", "values": [
      {"measurement": "log2 mean competition ratio", "setting": "[2]; 50 µM", "value": -0.125},
      {"measurement": "log2 mean competition ratio", "setting": "[2]; 200 µM", "value": 0.106},
      {"measurement": "log2 mean competition ratio", "setting": "[1]; 50 µM", "value": -0.324},
      {"measurement": "log2 mean competition ratio", "setting": "[1]; 200 µM", "value": -0.139}
    ]},
    {"target": "UBR4 C3279 (UniProt Q5T4S7)", "values": [
      {"measurement": "log2 mean competition ratio", "setting": "[1]; 50 µM", "value": 0.0464},
      {"measurement": "log2 mean competition ratio", "setting": "[1]; 200 µM", "value": -0.146}
    ]},
    {"target": "UBN2 C562 (UniProt Q6ZU65)", "values": [
      {"measurement": "log2 mean competition ratio", "setting": "[2]; 50 µM", "value": 0.0794},
      {"measurement": "log2 mean competition ratio", "setting": "[2]; 200 µM", "value": 0.403},
      {"measurement": "log2 mean competition ratio", "setting": "[1]; 50 µM", "value": -0.0856},
      {"measurement": "log2 mean competition ratio", "setting": "[1]; 200 µM", "value": 0.568}
    ]},
    {"target": "TTF2 C204 (UniProt Q9UNY4)", "values": [
      {"measurement": "log2 mean competition ratio", "setting": "[2]; 50 µM", "value": 0.221},
      {"measurement": "log2 mean competition ratio", "setting": "[2]; 200 µM", "value": -0.00893},
      {"measurement": "log2 mean competition ratio", "setting": "[1]; 50 µM", "value": 0.19},
      {"measurement": "log2 mean competition ratio", "setting": "[1]; 200 µM", "value": -0.103}
    ]},
    {"target": "TRMT44 C53 (UniProt Q8IYL2)", "values": [
      {"measurement": "log2 mean competition ratio", "setting": "[1]; 50 µM", "value": -0.108},
      {"measurement": "log2 mean competition ratio", "setting": "[1]; 200 µM", "value": -0.0455}
    ]},
    {"target": "TUBGCP2 C733 (UniProt Q9BSJ2)", "values": [
      {"measurement": "log2 mean competition ratio", "setting": "[1]; 50 µM", "value": 0.158},
      {"measurement": "log2 mean competition ratio", "setting": "[1]; 200 µM", "value": 0.314}
    ]},
    {"target": "TUT4 C64 (UniProt Q5TAX3)", "values": [
      {"measurement": "log2 mean competition ratio", "setting": "[1]; 50 µM", "value": 0.0545},
      {"measurement": "log2 mean competition ratio", "setting": "[1]; 200 µM", "value": 0.247}
    ]},
    {"target": "TRRAP C3555 (UniProt Q9Y4A5)", "values": [
      {"measurement": "log2 mean competition ratio", "setting": "[1]; 50 µM", "value": 0.286},
      {"measurement": "log2 mean competition ratio", "setting": "[1]; 200 µM", "value": 0.148}
    ]},
    {"target": "UBOX5 C99 (UniProt O94941)", "values": [
      {"measurement": "log2 mean competition ratio", "setting": "[2]; 50 µM", "value": -0.0834},
      {"measurement": "log2 mean competition ratio", "setting": "[2]; 200 µM", "value": -0.0121},
      {"measurement": "log2 mean competition ratio", "setting": "[1]; 50 µM", "value": 0.0472},
      {"measurement": "log2 mean competition ratio", "setting": "[1]; 200 µM", "value": 0.126}
    ]},
    {"target": "TXNRD3 C76 (UniProt Q86VQ6)", "values": [
      {"measurement": "log2 mean competition ratio", "setting": "[1]; 50 µM", "value": 0.633},
      {"measurement": "log2 mean competition ratio", "setting": "[1]; 200 µM", "value": 0.151}
    ]}
  ]
}
